Laboratory results as given in publication doi:10.1101/2024.12.13.628388.
No constants are given. Whether binding was seen depends on the method and setting. In cells and extracts the contact can be indirect. Binding can be weak; no strength is given. For some assays here: Tags and fused reporters may be left off the sequences shown.

Legend:
[1] = biological target: T1, Nuclear dot protein (NDP) 52, endogenous (human (endogenous in A549)) (UniProt Q13137); assay: co-IP
T1 sequence: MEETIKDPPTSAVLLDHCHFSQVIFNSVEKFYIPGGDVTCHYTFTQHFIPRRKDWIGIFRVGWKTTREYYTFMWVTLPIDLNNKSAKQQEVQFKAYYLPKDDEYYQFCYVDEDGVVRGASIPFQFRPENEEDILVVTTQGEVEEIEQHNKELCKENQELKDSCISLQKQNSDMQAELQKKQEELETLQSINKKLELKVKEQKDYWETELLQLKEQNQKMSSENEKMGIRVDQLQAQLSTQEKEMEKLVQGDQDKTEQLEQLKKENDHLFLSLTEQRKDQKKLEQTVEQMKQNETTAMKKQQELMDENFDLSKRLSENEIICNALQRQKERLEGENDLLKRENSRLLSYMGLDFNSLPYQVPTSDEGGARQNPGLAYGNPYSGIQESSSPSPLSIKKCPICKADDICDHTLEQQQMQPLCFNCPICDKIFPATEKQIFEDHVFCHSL

[2] = biological target: T2, Myc-NDP52 (UniProt Q13137); assay: co-IP
T2 sequence: T1 sequence

| Substance | binding [1] | binding [2] |
| --- | --- | --- |
| HA-2C (EMCV non-structural protein 2C) (Encephalomyocarditis virus (EMCV)) | binds |  |
| HA-VP2 (EMCV structural protein VP2) (Encephalomyocarditis virus (EMCV)) | binds |  |
| Myc-3C (EMCV 3C protease) (Encephalomyocarditis virus (EMCV)) (enzyme) | binds |  |
| Myc-VP1 (EMCV structural protein VP1) (Encephalomyocarditis virus (EMCV)) | binds |  |
| Myc-VP3 (EMCV structural protein VP3) (Encephalomyocarditis virus (EMCV)) | no binding |  |
| eGFP-2C(1-102) (Encephalomyocarditis virus (EMCV)) (domain or fragment) |  | binds |
| eGFP-2C(103-243) (Encephalomyocarditis virus (EMCV)) (domain or fragment) |  | no binding |
| eGFP-2C(244-326) (Encephalomyocarditis virus (EMCV)) (domain or fragment) |  | no binding |
